Source: US20260317388A1, “SELECTIVE NUCLEAR BLOCKADE FOR THE TREATMENT OF SEPSIS” (priority 2023, published 2026)
Where “and” joins values, the source holds several entries; their conditions need not be identical. Equal values may be shown once. Entries after “also recorded” stand apart in the source; their conditions may differ. At least one peptide structure holds a part that was inferred or is arguable (an end, a ring closure or a residue). Positions of bridges follow the written chain, without caps; N, C: chain ends. Residues, ends and D or L forms follow the SMILES beside them.

How the values were obtained:
[1] = system: cecal microbiome (bacterial count); experiment: Bacterial dissemination in blood, lungs, spleen and kidneys in polymicrobial sepsis; assay type: in vivo, C57Bl/6J mice; conditions: 12-hour treatment, without antimicrobial therapy
[2] = system: genes encoding the mediators of inflammation; conditions: animal models of allergic, autoimmune, metabolic, microbial, physical inflammation; cited from earlier work
[3] = system: Kidneys (genes responding to sepsis); experiment: Next-Generation Sequencing (NGS) of gene expression in kidneys of CM-challenged mice treated with NTCI; assay type: in vivo, C57Bl/6J mice
[4] = in vivo; cited from earlier work
[5] = in vivo; cited from earlier work; remark: listed apart in the source
cecal microbiome (CM) = experiment: Kirby-Bauer Antimicrobial Susceptibility Test (AST); assay type: cell-based, C57BL/6J mice (donors of CM); conditions: discs on TSA+5% sheep blood agar, 37° C; meropenem positive control
[6] = system: Gusb, Hprt1, Hsp90ab1, Gapdh, and Actb; experiment: Expression of five housekeeping genes; assay type: in vivo, C57Bl/6J mice
[7] = CM+NTCI vs CM+Saline, kidneys, 6 h
[8] = NTCI vs Saline, no sepsis, kidneys
[9] = kidneys of infected mice, NTCI, Saline 7
[10] = kidneys of infected mice, NTCI, Saline 8
[11] = kidneys of infected mice, NTCI, Saline 9
[12] = kidneys of infected mice, NTCI, Saline 10
[13] = kidneys of infected mice, NTCI, Saline 11
[14] = kidneys of infected mice, NTCI, Saline 12
[15] = kidneys of infected mice, NTCI, Saline 13
[16] = kidneys of infected mice, NTCI, Saline 14
[17] = kidneys of infected mice, NTCI, Saline 15
[18] = kidneys of infected mice, NTCI, Saline 16
[19] = kidneys of infected mice, NTCI, Saline 17
[20] = kidneys of infected mice, NTCI, Saline 19
[21] = kidneys of infected mice, NTCI, Saline 21
[22] = kidneys of infected mice, NTCI, Saline 22
[23] = kidneys of infected mice, NTCI, Saline 23
[24] = kidneys of infected mice, NTCI, Saline 24
[25] = kidneys of infected mice, NTCI, Saline 25
[26] = kidneys of infected mice, NTCI, Saline 26
[27] = kidneys of infected mice, NTCI, Saline 29
[28] = kidneys of infected mice, NTCI, Saline 32
[29] = kidneys of infected mice, NTCI, Saline 37

For `CSCC[C@@H]1NC(=O)[C@H](CC(C)C)NC(=O)[C@H](CCCCN)NC(=O)[C@H](CCC(N)=O)NC(=O)[C@H](CCCNC(=N)N)NC(=O)[C@H](CCCCN)NC(=O)[C@H](CCCNC(=N)N)NC(=O)[C@H](CCC(N)=O)NC(=O)[C@H](C(C)C)NC(=O)[C@@H](NC(=O)[C@@H]2CCCN2C(=O)[C@H](C)NC(=O)[C@H](CC(C)C)NC(=O)[C@H](CC(C)C)NC(=O)[C@H](C)NC(=O)[C@H](CC(C)C)NC(=O)[C@H](CC(C)C)NC(=O)[C@@H](NC(=O)[C@H](C)NC(=O)[C@@H]2CCCN2C(=O)[C@H](CC(C)C)NC(=O)[C@H](CC(C)C)NC(=O)[C@H](C)NC(=O)[C@@H](NC(=O)[C@H](C)NC(=O)[C@H](C)N)C(C)C)C(C)C)CSSC[C@@H](C(=O)O)NC(=O)[C@@H]2CCCN2C1=O` [cSN50.1] (H-AAVALLPAVLLALLAPCVQRKRQKLMPC-OH; disulfide 17-28), the “reduction of bacterial count / increase of bacterial clearance, blood” value ([1]; blood) was 18 fold, the “downward change of the bacterial count, kidneys” value ([1]; kidneys) was “not significant” and the “reduction of bacterial count / increase of bacterial clearance, lungs” value ([1]; lungs) was 11 fold. For the same compound, the “reduction of bacterial count / increase of bacterial clearance, spleen” value ([1]; spleen) was 9 fold, the “known genes encoding mediators of inflammation silenced (until this study)” value [2] was “at least 32 genes” and the “genes decreased, kidneys (number)” value [3, 7] was 1,042 genes. The “genes decreased, kidneys (percent)” value [3, 7] was 51.1%, the “genes increased, kidneys (number)” value [3, 7] was 909 genes and the “genes increased, kidneys (percent)” value [3, 7] was 44.6%. For the same compound, the “genes unchanged, kidneys (number)” value [3, 7] was 88 genes, the “genes unchanged, kidneys (percent)” value [3, 7] was 4.3% and the “genes significantly expressed, kidneys” value ([3]; CM+NTCI vs CM+Saline, kidneys, 6 h, of 16,787 genes analyzed) was 2,039 genes. The “genes significantly expressed in control animals, kidneys (percent)” value [3, 8] was 7%, the “genes with downward regulation in control animals, kidneys (number)” value [3, 8] was 815 genes and the “genes with downward regulation in control animals, kidneys (percent)” value [3, 8] was 65.2%. For the same compound, the “genes with increased expression in control animals, kidneys (number)” value [3, 8] was 433 genes, the “genes with increased expression in control animals, kidneys (percent)” value [3, 8] was 34.7% and the “genes significantly expressed in control animals, kidneys (number)” value ([3]; NTCI vs Saline, no sepsis, kidneys, of 17,776 analyzed) was 1,248 genes. It also gave an A530013C23Rik gene expression [3, 9] of 9 fold, a Cyp2a5 gene expression [3, 9] of 9 fold and a Gm8947 gene expression [3, 9] of 6 fold. For the same compound, the Gm44588 gene expression [3, 9] was 3 fold, the Gm45053 gene expression [3, 9] was 10 fold and the Klk1b4 gene expression [3, 9] was 15 fold. For the same compound, the Muc1 gene expression [3, 9] was 5 fold, the Mylk4 gene expression [3, 9] was 4 fold and the Col27a1 gene expression [3, 10] was 9 fold. The Fat2 gene expression [3, 10] was 2 fold, the Grem1 gene expression [3, 10] was 14 fold and the Hesx1 gene expression [3, 10] was 15 fold. For the same compound, the Hhipl1 gene expression [3, 10] was 5 fold, the Klk1b1 gene expression [3, 10] was 5 fold and the Lif gene expression [3, 10] was 20 fold. The Tacc2 gene expression [3, 10] was 6 fold, the Tsc22d1 gene expression [3, 10] was 11 fold and the Ugt1a5 gene expression [3, 10] was 1 fold. The Wnt8b gene expression [3, 10] was 20 fold, the 4930422C21Rik gene expression [3, 11] was 4 fold and the Dusp8 gene expression [3, 11] was 6 fold. It also gave a Gm10727 gene expression [3, 11] of 2 fold, a Gm44164 gene expression [3, 11] of 6 fold and a Gm44949 gene expression [3, 11] of 9 fold. It also gave a Lamb3 gene expression [3, 11] of 6 fold, a Mmp7 gene expression [3, 11] of 5 fold and a Plekhs1 gene expression [3, 11] of 19 fold. For the same compound, the Slc17a8 gene expression [3, 11] was 3 fold, the Trim17 gene expression [3, 11] was 3 fold and the Atp12a gene expression [3, 12] was 7 fold. The Ctla4 gene expression [3, 12] was 16 fold, the Kcna7 gene expression [3, 12] was 3 fold and the Derl3 gene expression [3, 13] was 5 fold. For the same compound, the Gdf6 gene expression [3, 13] was 5 fold, the Gm42793 gene expression [3, 13] was 41 fold and the Gm49037 gene expression [3, 13] was 11 fold. For the same compound, the Nptx2 gene expression [3, 13] was 23 fold, the Areg gene expression [3, 14] was 24 fold and the Armc12 gene expression [3, 14] was 29 fold. The Dnah10 gene expression [3, 14] was 12 fold, the Eif4ebp3 gene expression [3, 14] was 20 fold and the Creb313 gene expression [3, 15] was 6 fold. It also gave a Gm14319 gene expression [3, 15] of 18 fold, a 4732419C18Rik gene expression [3, 16] of 30 fold and a Gm19684 gene expression [3, 16] of 2 fold. For the same compound, the Gm37621 gene expression [3, 16] was 13 fold, the Krt20 gene expression [3, 16] was 30 fold and the 5830487J09Rik gene expression [3, 17] was 10 fold. It also gave an Olfr1442 gene expression [3, 17] of 21 fold, a Gm2670 gene expression [3, 18] of 7 fold and a Gm39929 gene expression [3, 18] of 4 fold. It also gave a Muc19 gene expression [3, 18] of 7 fold, a Bpifc gene expression [3, 19] of 5 fold and a Fgf18 gene expression [3, 19] of 11 fold. The Gabrp gene expression [3, 19] was 15 fold, the Lncenc1 gene expression [3, 19] was 9 fold and the Prss27 gene expression [3, 19] was 39 fold. It also gave a Lpo gene expression ([3]; kidneys of infected mice, NTCI, Saline 18) of 24 fold, a Crygn gene expression [3, 20] of 5 fold and a Gm44260 gene expression [3, 20] of 4 fold. The Marc1 gene expression [3, 20] was 23 fold, the Egr2 gene expression ([3]; kidneys of infected mice, NTCI, Saline 20) was 11 fold and the Gm13363 gene expression [3, 21] was 14 fold. For the same compound, the Speer4f2 gene expression [3, 21] was 19 fold, the Gm20548 gene expression [3, 22] was 9 fold and the Gm40709 gene expression [3, 22] was 9 fold. The Gm35028 gene expression [3, 23] was 15 fold, the Slfn4 gene expression [3, 23] was 14 fold and the Olr1 gene expression [3, 24] was 13 fold. The Slc6a16 gene expression [3, 24] was −1 fold, the Fgf21 gene expression [3, 25] was 6 fold and the Gm49392 gene expression [3, 25] was 13 fold. It also gave a Gm5541 gene expression [3, 26] of 4 fold, a Lrit3 gene expression [3, 26] of 24 fold and a Sbk2 gene expression [3, 26] of 26 fold. It also gave a Slamf1 gene expression [3, 26] of 39 fold, a Slc6a19os gene expression [3, 26] of 43 fold and a Gm45643 gene expression ([3]; kidneys of infected mice, NTCI, Saline 27) of 15 fold. The Gm33280 gene expression ([3]; kidneys of infected mice, NTCI, Saline 28) was 9 fold, the Ccdc33 gene expression [3, 27] was 10 fold and the Gm17055 gene expression [3, 27] was 29 fold. The Ppy gene expression [3, 27] was 4 fold, the Syt2 gene expression ([3]; kidneys of infected mice, NTCI, Saline 30) was 15 fold and the Gm16350 gene expression ([3]; kidneys of infected mice, NTCI, Saline 31) was 24 fold. It also gave a Mlana gene expression [3, 28] of 10 fold, a Pcdh8 gene expression [3, 28] of 49 fold and a Sftpa1 gene expression [3, 28] of 21 fold. It also gave an Angptl7 gene expression [3, 29] of 11 fold, a Gm43189 gene expression [3, 29] of 15 fold and a Muc4 gene expression ([3]; kidneys of infected mice, NTCI, Saline 49) of 87 fold. It also gave a Fut2 gene expression ([3]; kidneys of infected mice, NTCI, Saline 50) of 252 fold, a Dnah6 gene expression ([3]; kidneys of infected mice, NTCI, Saline 58) of 47 fold and a Gpbar1 gene expression ([3]; kidneys of infected mice, NTCI, Saline 60) of 266 fold. The Gm12503 gene expression ([3]; kidneys of infected mice, NTCI, Saline 64) was 32 fold, the Cela3b gene expression ([3]; kidneys of infected mice, NTCI, Saline 70) was −1 fold and the Reg3g gene expression ([3]; kidneys of infected mice, NTCI, Saline 83) was 116 fold. For the same compound, the Gm26965 gene expression ([3]; kidneys of infected mice, NTCI, Saline 100) was 30 fold, the Epx gene expression ([3]; kidneys of infected mice, NTCI, Saline 118) was 231 fold and the “sepsis-induced genes reprogrammed, kidneys” value ([3]; kidneys, 6-hour treatment, listed as NTCI) was 1,951 genes and > 1,900 genes. For the same compound, the “genes increased by NTCI among genes decreased in sepsis, kidneys (number)” value ([3]; kidneys, infected animals, 6 h) was 298 genes, the “genes increased by NTCI among genes decreased in sepsis, kidneys (percent)” value ([3]; kidneys, infected animals, 6 h) was 83.0% and the “genes reduced by NTCI in the pool of genes increased in sepsis, kidneys” value ([3]; kidneys, infected animals, 6 h) was 66.7%. The “Orm1 gene expression, kidneys” value ([3]; kidneys, sepsis) was “reduced almost to the physiologic levels”, the “apelin receptor (Aplnr) gene expression, kidneys” value ([3]; kidneys, sepsis) was “decreased” and the “effect on Cxcl2 gene expression, kidneys” value ([3]; kidneys, sepsis) was “increased”. For the same compound, the “effect on Il10 gene expression, kidneys” value ([3]; kidneys, sepsis) was “unchanged”, the “increase of Fosl1 expression, kidneys” value ([3]; kidneys, sepsis) was “two” and the “increase of TGR5 (Gpbar1) expression, kidneys” value ([3]; kidneys, sepsis) was 4 fold. The “lowering of Saa3 gene expression, kidneys” value ([3]; kidneys, sepsis) was “two”, the “Acod1 expression reduced to level, kidneys” value ([3]; kidneys, sepsis (73-fold without NTCI)) was 53 fold and the “Epx expression level, kidneys” value ([3]; kidneys, sepsis (118-fold without NTCI)) was 231 fold. The “genes encoding cytochrome P450, family 11 subfamily b and a polypeptide 1, kidneys” value ([3]; kidneys, sepsis, listed as NTCI) was “restored by the NTCI to higher albeit still abnormal levels; also recorded: partially reversed precipitous decline”, the “signs of massive microvascular liver injury and laboratory signs of DIC” value [4] was “reduced the signs” and the “blood glucose, cholesterol, and triglycerides, and atherosclerosis” value [5] was “reduces”. The “effect on bacterial growth” value (cecal microbiome (CM)) was “no effect” and the “expression of the five housekeeping genes” value [6] was “did not alter”.
